This is one part of the list. Single values are uncertain, as repeats are few or missing.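 Imaging used 1,536-well plates; nuclei positive for cleaved PARP by antibody were divided by total DNA-stained nuclei to yield the apoptosis fraction. Doses for screening kept most cells viable, and cell lines differ markedly in resting and induced cleaved-PARP levels.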

The first experiment concerns WM1716. The experiment in a line: cleaved PARP positive nuclei fraction relative to DMSO control; melanoma cells; higher = more apoptosis. The note with it: library dose: low library concentration; 72 h.
With `COc1cc([C@@H]2c3cc4c(cc3[C@@H](O[C@@H]3O[C@@H]5CO[C@@H](C)O[C@H]5[C@H](O)[C@H]3O)[C@H]3COC(=O)[C@H]23)OCO4)cc(OC)c1O` [etoposide] + C/C(O)=C(\C#N)C(=O)Nc1cc(Br)ccc1Br [LFM-A13] (first compound 0.02 µM, partner dose 2 µM), the “cleaved PARP positive nuclei fraction” value is 489%.

Take `Cn1cnc2c(F)c(Nc3ccc(Br)cc3Cl)c(C(=O)NOCCO)cc21` [selumetinib] + O=C(Oc1ccc([N+](=O)[O-])cc1)N1CCC(C(O)(c2ccc3c(c2)OCO3)c2ccc3c(c2)OCO3)CC1 [JZL184] (first compound 0.015 µM, partner dose 1 µM): the “cleaved PARP positive nuclei fraction” value was found to be 132%.

As to `Nc1ncn([C@H]2C[C@H](O)[C@@H](CO)O2)c(=O)n1` [decitabine] + O=C(Oc1ccc([N+](=O)[O-])cc1)N1CCC(C(O)(c2ccc3c(c2)OCO3)c2ccc3c(c2)OCO3)CC1 [JZL184] (first compound 0.1 µM, partner dose 1 µM), the “cleaved PARP positive nuclei fraction” value amounted to 250%.

As to `C[As](C)SC[C@H](NC(=O)CC[C@H](N)C(=O)O)C(=O)NCC(=O)O` [Darinaparsin] + O=C(O)c1ccc(-c2c[nH]c3ncc(-c4ccccc4)cc23)cc1C1CCCC1 [GSK650394] (first compound 0.4 µM, partner dose 0.16 µM), the “cleaved PARP positive nuclei fraction” value was 109%.

In the case of `O=C(Nc1cc(C(F)(F)F)cc(C(F)(F)F)c1)c1cc(Cl)ccc1O` + O=C(Oc1ccc([N+](=O)[O-])cc1)N1CCC(C(O)(c2ccc3c(c2)OCO3)c2ccc3c(c2)OCO3)CC1 [JZL184] (first compound 0.016 µM, partner dose 1 µM), the “cleaved PARP positive nuclei fraction” value was determined as 90.7%.

For `Cn1cc(C2=C(c3cn(C4CCN(Cc5ccccn5)CC4)c4ccccc34)C(=O)NC2=O)c2ccccc21` [Enzastaurin] + O=C(Oc1ccc([N+](=O)[O-])cc1)N1CCC(C(O)(c2ccc3c(c2)OCO3)c2ccc3c(c2)OCO3)CC1 [JZL184] (first compound 0.8 µM, partner dose 1 µM), the “cleaved PARP positive nuclei fraction” value was 201%.

Turning to `N.N.[Cl][Pt][Cl]` [cisplatin] + CO[C@@H]1[C@H](N(C)C(=O)c2ccccc2)C[C@H]2O[C@]1(C)n1c3ccccc3c3c4c(c5c6ccccc6n2c5c31)C(=O)NC4 [Midostaurin] (first compound 1.6 µM, partner dose 0.08 µM), the “cleaved PARP positive nuclei fraction” value amounted to 251%.

For the molecule `CCN(CC)CCNC(=O)c1c(C)[nH]c(/C=C2\C(=O)Nc3ccc(F)cc32)c1C` [sunitinib] + O=C(Oc1ccc([N+](=O)[O-])cc1)N1CCC(C(O)(c2ccc3c(c2)OCO3)c2ccc3c(c2)OCO3)CC1 [JZL184] (first compound 0.4 µM, partner dose 1 µM), the “cleaved PARP positive nuclei fraction” value stood at 125%.

Consider `N.N.[Cl][Pt][Cl]` [cisplatin] + Oc1cc(-c2nc(-c3ccccc3)[nH]c2-c2ccncc2)ccc1Cl [L779450] (first compound 1.6 µM, partner dose 0.2 µM), for which the “cleaved PARP positive nuclei fraction” value is 106%.

As for `Clc1ccc(Nc2nnc(Cc3ccncc3)c3ccccc23)cc1` [vatalanib] + O=C(Oc1ccc([N+](=O)[O-])cc1)N1CCC(C(O)(c2ccc3c(c2)OCO3)c2ccc3c(c2)OCO3)CC1 [JZL184] (first compound 2 µM, partner dose 1 µM), the “cleaved PARP positive nuclei fraction” value is 128%.

Turning to `C[As](C)SC[C@H](NC(=O)CC[C@H](N)C(=O)O)C(=O)NCC(=O)O` [Darinaparsin] + OCCn1cc(-c2cnc3nnn(Cc4ccc5ncccc5c4)c3n2)cn1 [PF04217903] (first compound 0.4 µM, partner dose 1 µM), the “cleaved PARP positive nuclei fraction” value was 46.1%.

For the molecule `C[C@@H](N)c1ccc(C(=O)Nc2ccnc3[nH]ccc23)cc1` + Cc1cc(SCc2sc(-c3ccc(C(F)(F)F)c(F)c3)nc2C)ccc1OCC(=O)O [GW0742] (first compound 0.4 µM, partner dose 2 µM), the “cleaved PARP positive nuclei fraction” value turned out to be 1940%.

Turning to `N.N.[Cl][Pt][Cl]` [cisplatin] + Cn1cncc1[C@@](N)(c1ccc(Cl)cc1)c1ccc2c(c1)c(-c1cccc(Cl)c1)cc(=O)n2C [tipifarnib] (first compound 1.6 µM, partner dose 0.01 µM), the “cleaved PARP positive nuclei fraction” value was 72.8%.

The next experiment has as its system WM1745. The description is as above. As to conditions: library dose: low library concentration; 72 h.
`NC1(c2ccc(-c3nc4ccn5c(=O)[nH]nc5c4cc3-c3ccccc3)cc2)CCC1` + O=C(Oc1ccc([N+](=O)[O-])cc1)N1CCC(C(O)(c2ccc3c(c2)OCO3)c2ccc3c(c2)OCO3)CC1 [JZL184] (first compound 0.4 µM, partner dose 1 µM): the “cleaved PARP positive nuclei fraction” value turned out to be 88.8%.

With `COc1ccc(C2=N[C@@H](c3ccc(Cl)cc3)[C@@H](c3ccc(Cl)cc3)N2C(=O)N2CCNC(=O)C2)c(OC(C)C)c1` [Nutlin-3] + C/C(O)=C(\C#N)C(=O)Nc1cc(Br)ccc1Br [LFM-A13] (first compound 0.1 µM, partner dose 2 µM), the “cleaved PARP positive nuclei fraction” value was 92.4%.

`O=C(/C=C/c1cccnc1)NCCCCC1CCN(C(=O)c2ccccc2)CC1` + Cc1cc(SCc2sc(-c3ccc(C(F)(F)F)c(F)c3)nc2C)ccc1OCC(=O)O [GW0742] (first compound 0.01 µM, partner dose 2 µM): the “cleaved PARP positive nuclei fraction” value came to 92.8%.

On to `C[As](C)SC[C@H](NC(=O)CC[C@H](N)C(=O)O)C(=O)NCC(=O)O` [Darinaparsin] + NC(=O)Nc1cc(-c2cccc(F)c2)sc1C(=O)N[C@H]1CCCNC1 [AZD7762] (first compound 0.4 µM, partner dose 0.02 µM), for which the “cleaved PARP positive nuclei fraction” value is 94.3%.

Regarding `C[As](C)SC[C@H](NC(=O)CC[C@H](N)C(=O)O)C(=O)NCC(=O)O` [Darinaparsin] + C[C@@H]1CCN(C(=O)CC#N)C[C@@H]1N(C)c1ncnc2[nH]ccc12 [CP690550] (first compound 0.4 µM, partner dose 1 µM), the “cleaved PARP positive nuclei fraction” value is 81%.

As for `C[C@]1(O)C[C@@H](c2nc(-c3ccc4ccc(-c5ccccc5)nc4c3)c3c(N)nccn32)C1` + C/C(O)=C(\C#N)C(=O)Nc1cc(Br)ccc1Br [LFM-A13] (first compound 0.4 µM, partner dose 2 µM), the “cleaved PARP positive nuclei fraction” value came out at 121%.

For `N.N.[Cl][Pt][Cl]` [cisplatin] + Cc1cc([N+](=O)[O-])ccc1NS(=O)(=O)c1cc(Cl)ccc1Cl [FH535] (first compound 1.6 µM, partner dose 1 µM), the “cleaved PARP positive nuclei fraction” value is 92%.

Consider `Cn1cc(C2=C(c3cn(C4CCN(Cc5ccccn5)CC4)c4ccccc34)C(=O)NC2=O)c2ccccc21` [Enzastaurin] + O=C1NC(=O)/C(=C/c2ccc(-c3ccc(F)cc3O)o2)S1 [AS252424] (first compound 0.8 µM, partner dose 1 µM), for which the “cleaved PARP positive nuclei fraction” value was 90%.

Consider `C=CCNC1=C2C[C@@H](C)C[C@H](OC)[C@H](O)[C@@H](C)/C=C(\C)[C@H](OC(N)=O)[C@@H](OC)/C=C\C=C(/C)C(=O)NC(=CC1=O)C2=O` [Tanespimycin] + Cc1cc(SCc2sc(-c3ccc(C(F)(F)F)c(F)c3)nc2C)ccc1OCC(=O)O [GW0742] (first compound 0.002 µM, partner dose 2 µM), for which the “cleaved PARP positive nuclei fraction” value was found to be 95.9%.

Regarding `O=C(O)c1ccc2c(c1)nc(Nc1cccc(Cl)c1)c1ccncc12` + O=C(Oc1ccc([N+](=O)[O-])cc1)N1CCC(C(O)(c2ccc3c(c2)OCO3)c2ccc3c(c2)OCO3)CC1 [JZL184] (first compound 0.4 µM, partner dose 1 µM), the “cleaved PARP positive nuclei fraction” value came to 82.8%.

`N.N.[Cl][Pt][Cl]` [cisplatin] + Cc1cc(N2CCOCC2)cc2[nH]c(-c3c(NC[C@@H](O)c4cccc(Cl)c4)cc[nH]c3=O)nc12 [BMS536924] (first compound 1.6 µM, partner dose 0.2 µM): the “cleaved PARP positive nuclei fraction” value came to 146%.

For the molecule `CC1(C)CCC(c2ccc(Cl)cc2)=C(CN2CCN(c3ccc(C(=O)NS(=O)(=O)c4ccc(N[C@H](CCN5CCOCC5)CSc5ccccc5)c(S(=O)(=O)C(F)(F)F)c4)cc3)CC2)C1` + O=C(Oc1ccc([N+](=O)[O-])cc1)N1CCC(C(O)(c2ccc3c(c2)OCO3)c2ccc3c(c2)OCO3)CC1 [JZL184] (first compound 0.4 µM, partner dose 1 µM), the “cleaved PARP positive nuclei fraction” value was 809%.

As for `Cc1cc(Nc2cc(N3CCN(C)CC3)nc(/C=C/c3ccccc3)n2)n[nH]1` + C/C(O)=C(\C#N)C(=O)Nc1cc(Br)ccc1Br [LFM-A13] (first compound 0.04 µM, partner dose 2 µM), the “cleaved PARP positive nuclei fraction” value was found to be 93.5%.

Take `N.N.[Cl][Pt][Cl]` [cisplatin] + OCCn1cc(-c2cnc3nnn(Cc4ccc5ncccc5c4)c3n2)cn1 [PF04217903] (first compound 1.6 µM, partner dose 1 µM): the “cleaved PARP positive nuclei fraction” value was 104%.

With `Cn1cc(C2=C(c3cn(C4CCN(Cc5ccccn5)CC4)c4ccccc34)C(=O)NC2=O)c2ccccc21` [Enzastaurin] + COc1ccc(COc2ccc(Cc3cnc(N)nc3N)cc2OC)cc1 [GW2580] (first compound 0.8 µM, partner dose 1 µM), the “cleaved PARP positive nuclei fraction” value was determined as 107%.

For the molecule `Cn1cc(C2=C(c3cn(C4CCN(Cc5ccccn5)CC4)c4ccccc34)C(=O)NC2=O)c2ccccc21` [Enzastaurin] + c1cc(-c2cnn3cc(-c4ccc(OCCN5CCCCC5)cc4)cnc23)ccn1 [Dorsomorphin] (first compound 0.8 µM, partner dose 0.4 µM), the “cleaved PARP positive nuclei fraction” value worked out at 122%.

In the case of `C[As](C)SC[C@H](NC(=O)CC[C@H](N)C(=O)O)C(=O)NCC(=O)O` [Darinaparsin] + C=CCn1c(=O)c2cnc(Nc3ccc(N4CCN(C)CC4)cc3)nc2n1-c1cccc(C(C)(C)O)n1 [MK1775] (first compound 0.4 µM, partner dose 0.02 µM), the “cleaved PARP positive nuclei fraction” value was determined as 105%.

(Values after the supplement of paper PMC4604168 (melanoma cell lines).)
